Data from publication PMC12757297.

The chains behind the UniProt entries cited, without tags or fusion partners.
UniProt Q07955: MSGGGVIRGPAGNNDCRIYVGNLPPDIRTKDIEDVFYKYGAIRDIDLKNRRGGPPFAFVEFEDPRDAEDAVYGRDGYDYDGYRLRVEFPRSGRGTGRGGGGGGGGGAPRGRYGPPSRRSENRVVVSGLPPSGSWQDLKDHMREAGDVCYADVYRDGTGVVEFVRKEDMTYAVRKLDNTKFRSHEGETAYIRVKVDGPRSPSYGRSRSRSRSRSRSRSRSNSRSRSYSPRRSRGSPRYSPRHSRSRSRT
UniProt Q9UQ35: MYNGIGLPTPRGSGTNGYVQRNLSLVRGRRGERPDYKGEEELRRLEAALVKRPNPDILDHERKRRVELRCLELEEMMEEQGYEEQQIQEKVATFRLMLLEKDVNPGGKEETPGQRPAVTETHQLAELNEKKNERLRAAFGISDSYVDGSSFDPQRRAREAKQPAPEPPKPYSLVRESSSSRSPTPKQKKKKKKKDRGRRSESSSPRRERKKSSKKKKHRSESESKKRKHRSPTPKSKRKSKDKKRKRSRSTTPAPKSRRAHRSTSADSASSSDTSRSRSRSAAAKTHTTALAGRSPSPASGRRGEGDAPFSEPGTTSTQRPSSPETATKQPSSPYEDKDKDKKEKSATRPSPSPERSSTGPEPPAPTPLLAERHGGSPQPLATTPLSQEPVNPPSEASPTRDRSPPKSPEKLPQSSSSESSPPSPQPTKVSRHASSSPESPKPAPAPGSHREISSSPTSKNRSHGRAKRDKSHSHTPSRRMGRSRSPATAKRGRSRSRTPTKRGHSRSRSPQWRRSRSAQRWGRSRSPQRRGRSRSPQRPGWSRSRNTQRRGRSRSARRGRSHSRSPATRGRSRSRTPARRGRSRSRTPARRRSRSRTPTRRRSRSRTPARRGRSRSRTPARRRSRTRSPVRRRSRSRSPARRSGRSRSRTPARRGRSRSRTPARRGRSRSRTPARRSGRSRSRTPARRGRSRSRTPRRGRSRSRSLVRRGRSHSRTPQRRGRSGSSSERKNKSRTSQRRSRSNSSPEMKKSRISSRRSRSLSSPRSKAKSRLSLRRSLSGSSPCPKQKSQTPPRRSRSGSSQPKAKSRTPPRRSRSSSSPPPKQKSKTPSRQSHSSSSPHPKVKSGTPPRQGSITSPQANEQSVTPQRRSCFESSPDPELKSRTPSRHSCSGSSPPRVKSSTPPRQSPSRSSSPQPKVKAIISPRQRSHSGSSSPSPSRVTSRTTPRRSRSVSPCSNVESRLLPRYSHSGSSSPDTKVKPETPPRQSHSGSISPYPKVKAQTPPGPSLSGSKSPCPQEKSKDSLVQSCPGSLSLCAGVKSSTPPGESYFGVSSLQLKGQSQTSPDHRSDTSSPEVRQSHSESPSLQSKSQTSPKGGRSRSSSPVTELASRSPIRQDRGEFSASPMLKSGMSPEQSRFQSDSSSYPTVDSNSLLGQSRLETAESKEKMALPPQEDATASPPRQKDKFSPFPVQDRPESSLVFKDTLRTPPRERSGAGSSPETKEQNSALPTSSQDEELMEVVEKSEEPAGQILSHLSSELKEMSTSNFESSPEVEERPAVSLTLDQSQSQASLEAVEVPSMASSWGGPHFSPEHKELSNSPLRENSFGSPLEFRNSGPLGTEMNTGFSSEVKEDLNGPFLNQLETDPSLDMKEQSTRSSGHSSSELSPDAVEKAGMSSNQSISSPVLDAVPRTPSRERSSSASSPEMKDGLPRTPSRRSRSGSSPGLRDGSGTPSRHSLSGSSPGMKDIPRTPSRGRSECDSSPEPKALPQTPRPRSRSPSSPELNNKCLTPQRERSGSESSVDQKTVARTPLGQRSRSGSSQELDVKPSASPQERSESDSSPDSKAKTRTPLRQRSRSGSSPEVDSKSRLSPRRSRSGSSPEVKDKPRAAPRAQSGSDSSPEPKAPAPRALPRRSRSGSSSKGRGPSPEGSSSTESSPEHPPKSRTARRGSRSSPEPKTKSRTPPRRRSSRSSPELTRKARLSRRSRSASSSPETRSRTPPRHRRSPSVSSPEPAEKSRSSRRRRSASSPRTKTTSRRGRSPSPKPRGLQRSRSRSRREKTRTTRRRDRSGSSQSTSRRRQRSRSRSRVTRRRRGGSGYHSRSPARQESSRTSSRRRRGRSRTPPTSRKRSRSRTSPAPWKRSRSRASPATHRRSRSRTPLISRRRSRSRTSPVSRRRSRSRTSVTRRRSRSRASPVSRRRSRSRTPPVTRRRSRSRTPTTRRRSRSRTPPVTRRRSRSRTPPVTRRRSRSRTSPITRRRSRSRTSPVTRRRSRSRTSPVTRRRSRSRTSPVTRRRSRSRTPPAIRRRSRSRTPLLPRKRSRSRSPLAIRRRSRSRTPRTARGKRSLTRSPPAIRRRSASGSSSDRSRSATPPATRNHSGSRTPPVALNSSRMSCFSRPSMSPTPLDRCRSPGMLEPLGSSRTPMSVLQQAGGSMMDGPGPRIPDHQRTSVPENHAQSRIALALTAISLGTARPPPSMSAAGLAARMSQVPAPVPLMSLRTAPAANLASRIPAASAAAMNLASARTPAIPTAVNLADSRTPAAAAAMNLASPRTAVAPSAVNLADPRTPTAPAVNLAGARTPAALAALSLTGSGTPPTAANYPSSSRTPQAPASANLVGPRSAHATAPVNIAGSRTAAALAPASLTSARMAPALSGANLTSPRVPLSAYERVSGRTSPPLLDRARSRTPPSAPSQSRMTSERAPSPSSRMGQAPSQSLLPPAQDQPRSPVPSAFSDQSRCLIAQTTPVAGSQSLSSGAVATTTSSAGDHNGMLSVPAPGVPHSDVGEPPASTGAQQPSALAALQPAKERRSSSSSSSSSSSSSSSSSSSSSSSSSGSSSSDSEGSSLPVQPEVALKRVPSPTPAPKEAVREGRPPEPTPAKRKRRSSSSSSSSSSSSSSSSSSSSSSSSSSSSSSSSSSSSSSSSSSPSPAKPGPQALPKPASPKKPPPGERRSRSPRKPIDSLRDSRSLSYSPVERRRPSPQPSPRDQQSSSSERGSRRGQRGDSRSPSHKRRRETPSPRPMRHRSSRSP
UniProt Q9BUQ8: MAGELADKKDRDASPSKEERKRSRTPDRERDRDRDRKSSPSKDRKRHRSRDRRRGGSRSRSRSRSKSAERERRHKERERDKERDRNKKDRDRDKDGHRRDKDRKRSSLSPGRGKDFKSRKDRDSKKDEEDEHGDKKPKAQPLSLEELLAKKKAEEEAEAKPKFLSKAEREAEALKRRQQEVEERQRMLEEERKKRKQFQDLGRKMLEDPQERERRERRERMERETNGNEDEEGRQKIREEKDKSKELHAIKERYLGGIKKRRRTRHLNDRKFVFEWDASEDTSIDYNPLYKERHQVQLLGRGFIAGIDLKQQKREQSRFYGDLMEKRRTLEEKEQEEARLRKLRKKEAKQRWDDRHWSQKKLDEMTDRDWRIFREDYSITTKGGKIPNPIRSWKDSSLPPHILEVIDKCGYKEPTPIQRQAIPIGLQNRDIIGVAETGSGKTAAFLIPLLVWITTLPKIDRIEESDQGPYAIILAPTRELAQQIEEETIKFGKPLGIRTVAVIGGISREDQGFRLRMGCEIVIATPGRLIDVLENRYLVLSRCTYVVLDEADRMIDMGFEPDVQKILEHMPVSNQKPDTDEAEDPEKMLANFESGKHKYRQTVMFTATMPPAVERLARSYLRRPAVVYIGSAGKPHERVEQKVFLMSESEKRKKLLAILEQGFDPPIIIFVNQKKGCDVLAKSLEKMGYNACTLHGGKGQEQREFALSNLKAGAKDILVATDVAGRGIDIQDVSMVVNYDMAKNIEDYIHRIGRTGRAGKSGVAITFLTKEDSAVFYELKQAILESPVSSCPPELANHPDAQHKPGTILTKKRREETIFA
UniProt P18583: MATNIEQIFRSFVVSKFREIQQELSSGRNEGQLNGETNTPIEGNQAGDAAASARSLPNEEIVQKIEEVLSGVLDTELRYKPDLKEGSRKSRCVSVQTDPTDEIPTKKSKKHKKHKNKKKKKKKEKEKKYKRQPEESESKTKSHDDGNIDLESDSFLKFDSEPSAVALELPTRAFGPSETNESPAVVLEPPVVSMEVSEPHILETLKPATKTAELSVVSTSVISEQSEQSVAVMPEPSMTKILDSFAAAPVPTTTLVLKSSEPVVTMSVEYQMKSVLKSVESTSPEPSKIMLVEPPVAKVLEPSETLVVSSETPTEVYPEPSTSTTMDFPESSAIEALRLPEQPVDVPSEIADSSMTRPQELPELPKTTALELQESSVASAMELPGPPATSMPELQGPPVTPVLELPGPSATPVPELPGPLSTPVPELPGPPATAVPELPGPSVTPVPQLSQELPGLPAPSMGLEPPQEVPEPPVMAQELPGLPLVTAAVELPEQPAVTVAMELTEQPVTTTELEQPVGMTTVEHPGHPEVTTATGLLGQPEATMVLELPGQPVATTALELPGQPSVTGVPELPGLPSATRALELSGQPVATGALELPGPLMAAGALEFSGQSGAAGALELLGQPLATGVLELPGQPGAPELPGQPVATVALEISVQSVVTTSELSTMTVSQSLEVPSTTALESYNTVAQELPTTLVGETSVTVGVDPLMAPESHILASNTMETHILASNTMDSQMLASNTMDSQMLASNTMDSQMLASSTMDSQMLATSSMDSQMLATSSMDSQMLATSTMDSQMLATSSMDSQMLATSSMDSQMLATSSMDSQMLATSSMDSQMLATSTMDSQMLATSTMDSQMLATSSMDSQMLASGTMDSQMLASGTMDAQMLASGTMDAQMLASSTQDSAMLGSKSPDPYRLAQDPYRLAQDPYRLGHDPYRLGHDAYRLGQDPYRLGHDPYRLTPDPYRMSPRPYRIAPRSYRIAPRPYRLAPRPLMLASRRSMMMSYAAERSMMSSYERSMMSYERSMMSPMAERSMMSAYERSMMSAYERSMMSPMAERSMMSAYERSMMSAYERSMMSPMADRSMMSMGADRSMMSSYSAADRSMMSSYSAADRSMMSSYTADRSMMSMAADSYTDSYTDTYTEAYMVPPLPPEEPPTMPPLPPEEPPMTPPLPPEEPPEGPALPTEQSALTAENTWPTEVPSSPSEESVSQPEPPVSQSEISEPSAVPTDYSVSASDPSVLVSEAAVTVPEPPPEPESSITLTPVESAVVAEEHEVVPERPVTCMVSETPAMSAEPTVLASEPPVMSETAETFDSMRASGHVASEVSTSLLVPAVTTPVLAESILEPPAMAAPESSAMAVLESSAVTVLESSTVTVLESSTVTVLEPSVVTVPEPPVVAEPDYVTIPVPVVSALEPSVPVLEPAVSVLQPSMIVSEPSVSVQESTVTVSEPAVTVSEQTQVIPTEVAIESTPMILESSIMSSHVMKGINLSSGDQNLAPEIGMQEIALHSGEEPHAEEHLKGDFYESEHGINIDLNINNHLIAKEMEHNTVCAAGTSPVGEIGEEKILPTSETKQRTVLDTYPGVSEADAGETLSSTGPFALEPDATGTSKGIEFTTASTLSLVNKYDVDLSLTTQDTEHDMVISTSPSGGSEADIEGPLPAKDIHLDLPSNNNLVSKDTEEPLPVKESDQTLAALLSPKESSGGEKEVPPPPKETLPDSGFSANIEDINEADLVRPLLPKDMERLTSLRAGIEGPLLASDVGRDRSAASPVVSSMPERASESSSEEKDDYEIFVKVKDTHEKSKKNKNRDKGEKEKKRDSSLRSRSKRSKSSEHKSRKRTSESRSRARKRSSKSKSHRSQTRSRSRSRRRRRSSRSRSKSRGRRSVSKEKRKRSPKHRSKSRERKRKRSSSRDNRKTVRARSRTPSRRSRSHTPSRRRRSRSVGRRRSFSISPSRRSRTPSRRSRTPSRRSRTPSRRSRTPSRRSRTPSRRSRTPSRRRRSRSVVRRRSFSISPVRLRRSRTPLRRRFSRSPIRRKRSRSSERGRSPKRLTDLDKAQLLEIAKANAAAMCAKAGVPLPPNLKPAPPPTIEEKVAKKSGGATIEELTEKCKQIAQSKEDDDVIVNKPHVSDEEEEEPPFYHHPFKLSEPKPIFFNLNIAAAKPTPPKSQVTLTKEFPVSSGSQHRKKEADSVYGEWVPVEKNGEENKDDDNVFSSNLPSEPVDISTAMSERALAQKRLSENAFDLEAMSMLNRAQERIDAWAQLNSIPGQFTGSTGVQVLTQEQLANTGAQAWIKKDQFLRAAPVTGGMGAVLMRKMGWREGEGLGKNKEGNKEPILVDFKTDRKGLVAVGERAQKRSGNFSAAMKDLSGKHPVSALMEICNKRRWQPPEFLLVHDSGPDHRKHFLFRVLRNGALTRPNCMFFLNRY

B1: DHX16 fused to the AP or the EX fragment of APEX2 (protein, UniProt O60231 1-1041)
chain: MATPAGLERWVQDELHSVLGLSERHVAQFLIGTAQRCTSAEEFVQRLRDTDTLDLSGPARDFALRLWNKVPRKAVVEKPARAAEREARALLEKNRSYRLLEDSEESSEETVSRAGSSLQKKRKKRKHLRKKREEEEEEEASEKGKKKTGGSKQQTEKPESEDEWERTERERLQDLEERDAFAERVRQRDKDRTRNVLERSDKKAYEEAQKRLKMAEEDRKAMVPELRKKSRREYLAKREREKLEDLEAELADEEFLFGDVELSRHERQELKYKRRVRDLAREYRAAGEQEKLEATNRYHMPKETRGQPARAVDLVEEESGAPGEEQRRWEEARLGAASLKFGARDAASQEPKYQLVLEEEETIEFVRATQLQGDEEPSAPPTSTQAQQKESIQAVRRSLPVFPFREELLAAIANHQVLIIEGETGSGKTTQIPQYLFEEGYTNKGMKIACTQPRRVAAMSVAARVAREMGVKLGNEVGYSIRFEDCTSERTVLRYMTDGMLLREFLSEPDLASYSVVMVDEAHERTLHTDILFGLIKDVARFRPELKVLVASATMDTARFSTFFDDAPVFRIPGRRFPVDIFYTKAPEADYLEACVVSVLQIHVTQPPGDILVFLTGQEEIEAACEMLQDRCRRLGSKIRELLVLPIYANLPSDMQARIFQPTPPGARKVVVATNIAETSLTIEGIIYVLDPGFCKQKSYNPRTGMESLTVTPCSKASANQRAGRAGRVAAGKCFRLYTAWAYQHELEETTVPEIQRTSLGNVVLLLKSLGIHDLMHFDFLDPPPYETLLLALEQLYALGALNHLGELTTSGRKMAELPVDPMLSKMILASEKYSCSEEILTVAAMLSVNNSIFYRPKDKVVHADNARVNFFLPGGDHLVLLNVYTQWAESGYSSQWCYENFVQFRSMRRARDVREQLEGLLERVEVGLSSCQGDYIRVRKAITAGYFYHTARLTRSGYRTVKQQQTVFIHPNSSLFEQQPRWLLYHELVLTTKEFMRQVLEIESSWLLEVAPHYYKAKELEDPHAKKMPKKIGKTREELG
B2: DHX38 fused to the AP or the EX fragment of APEX2 (protein, UniProt Q92620 1-1227)
chain: MGDTSEDASIHRLEGTDLDCQVGGLICKSKSAASEQHVFKAPAPRPSLLGLDLLASLKRREREEKDDGEDKKKSKVSSYKDWEESKDDQKDAEEEGGDQAGQNIRKDRHYRSARVETPSHPGGVSEEFWERSRQRERERREHGVYASSKEEKDWKKEKSRDRDYDRKRDRDERDRSRHSSRSERDGGSERSSRRNEPESPRHRPKDAATPSRSTWEEEDSGYGSSRRSQWESPSPTPSYRDSERSHRLSTRDRDRSVRGKYSDDTPLPTPSYKYNEWADDRRHLGSTPRLSRGRGRREEGEEGISFDTEEERQQWEDDQRQADRDWYMMDEGYDEFHNPLAYSSEDYVRRREQHLHKQKQKRISAQRRQINEDNERWETNRMLTSGVVHRLEVDEDFEEDNAAKVHLMVHNLVPPFLDGRIVFTKQPEPVIPVKDATSDLAIIARKGSQTVRKHREQKERKKAQHKHWELAGTKLGDIMGVKKEEEPDKAVTEDGKVDYRTEQKFADHMKRKSEASSEFAKKKSILEQRQYLPIFAVQQELLTIIRDNSIVIVVGETGSGKTTQLTQYLHEDGYTDYGMIGCTQPRRVAAMSVAKRVSEEMGGNLGEEVGYAIRFEDCTSENTLIKYMTDGILLRESLREADLDHYSAIIMDEAHERSLNTDVLFGLLREVVARRSDLKLIVTSATMDAEKFAAFFGNVPIFHIPGRTFPVDILFSKTPQEDYVEAAVKQSLQVHLSGAPGDILIFMPGQEDIEVTSDQIVEHLEELENAPALAVLPIYSQLPSDLQAKIFQKAPDGVRKCIVATNIAETSLTVDGIMFVIDSGYCKLKVFNPRIGMDALQIYPISQANANQRSGRAGRTGPGQCFRLYTQSAYKNELLTTTVPEIQRTNLANVVLLLKSLGVQDLLQFHFMDPPPEDNMLNSMYQLWILGALDNTGGLTSTGRLMVEFPLDPALSKMLIVSCDMGCSSEILLIVSMLSVPAIFYRPKGREEESDQIREKFAVPESDHLTYLNVYLQWKNNNYSTIWCNDHFIHAKAMRKVREVRAQLKDIMVQQRMSLASCGTDWDIVRKCICAAYFHQAAKLKGIGEYVNIRTGMPCHLHPTSSLFGMGYTPDYIVYHELVMTTKEYMQCVTAVDGEWLAELGPMFYSVKQAGKSRQENRRRAKEEASAMEEEMALAEEQLRARRQEQEKRSPLGSVRSTKIYTPGRKEQGEPMTPRRTPARFGL
B3: DHX8 fused to the AP or the EX fragment of APEX2 (protein, UniProt Q14562 1-1220)
chain: MAVAVAMAGALIGSEPGPAEELAKLEYLSLVSKVCTELDNHLGINDKDLAEFVISLAEKNTTFDTFKASLVKNGAEFTDSLISNLLRLIQTMRPPAKPSTSKDPVVKPKTEKEKLKELFPVLCQPDNPSVRTMLDEDDVKVAVDVLKELEALMPSAAGQEKQRDAEHRDRTKKKKRSRSRDRNRDRDRDRERNRDRDHKRRHRSRSRSRSRTRERNKVKSRYRSRSRSQSPPKDRKDRDKYGERNLDRWRDKHVDRPPPEEPTIGDIYNGKVTSIMQFGCFVQLEGLRKRWEGLVHISELRREGRVANVADVVSKGQRVKVKVLSFTGTKTSLSMKDVDQETGEDLNPNRRRNLVGETNEETSMRNPDRPTHLSLVSAPEVEDDSLERKRLTRISDPEKWEIKQMIAANVLSKEEFPDFDEETGILPKVDDEEDEDLEIELVEEEPPFLRGHTKQSMDMSPIKIVKNPDGSLSQAAMMQSALAKERRELKQAQREAEMDSIPMGLNKHWVDPLPDAEGRQIAANMRGIGMMPNDIPEWKKHAFGGNKASYGKKTQMSILEQRESLPIYKLKEQLVQAVHDNQILIVIGETGSGKTTQITQYLAEAGYTSRGKIGCTQPRRVAAMSVAKRVSEEFGCCLGQEVGYTIRFEDCTSPETVIKYMTDGMLLRECLIDPDLTQYAIIMLDEAHERTIHTDVLFGLLKKTVQKRQDMKLIVTSATLDAVKFSQYFYEAPIFTIPGRTYPVEILYTKEPETDYLDASLITVMQIHLTEPPGDILVFLTGQEEIDTACEILYERMKSLGPDVPELIILPVYSALPSEMQTRIFDPAPPGSRKVVIATNIAETSLTIDGIYYVVDPGFVKQKVYNSKTGIDQLVVTPISQAQAKQRAGRAGRTGPGKCYRLYTERAYRDEMLTTNVPEIQRTNLASTVLSLKAMGINDLLSFDFMDAPPMETLITAMEQLYTLGALDDEGLLTRLGRRMAEFPLEPMLCKMLIMSVHLGCSEEMLTIVSMLSVQNVFYRPKDKQALADQKKAKFHQTEGDHLTLLAVYNSWKNNKFSNPWCYENFIQARSLRRAQDIRKQMLGIMDRHKLDVVSCGKSTVRVQKAICSGFFRNAAKKDPQEGYRTLIDQQVVYIHPSSALFNRQPEWVVYHELVLTTKEYMREVTTIDPRWLVEFAPAFFKVSDPTKLSKQKKQQRLEPLYNRYEEPNAWRISRAFRRR
B4: DDX46 fused to the AP or the EX fragment of APEX2 (protein, UniProt Q7L014 1-1031)
chain: MGRESRHYRKRSASRGRSGSRSRSRSPSDKRSKRGDDRRSRSRDRDRRRERSRSRDKRRSRSRDRKRLRRSRSRERDRSRERRRSRSRDRRRSRSRSRGRRSRSSSPGNKSKKTENRSRSKEKTDGGESSKEKKKDKDDKEDEKEKDAGNFDQNKLEEEMRKRKERVEKWREEQRKKAMENIGELKKEIEEMKQGKKWSLEDDDDDEDDPAEAEKEGNEMEGEELDPLDAYMEEVKEEVKKFNMRSVKGGGGNEKKSGPTVTKVVTVVTTKKAVVDSDKKKGELMENDQDAMEYSSEEEEVDLQTALTGYQTKQRKLLEPVDHGKIEYEPFRKNFYVEVPELAKMSQEEVNVFRLEMEGITVKGKGCPKPIKSWVQCGISMKILNSLKKHGYEKPTPIQTQAIPAIMSGRDLIGIAKTGSGKTIAFLLPMFRHIMDQRSLEEGEGPIAVIMTPTRELALQITKECKKFSKTLGLRVVCVYGGTGISEQIAELKRGAEIIVCTPGRMIDMLAANSGRVTNLRRVTYVVLDEADRMFDMGFEPQVMRIVDNVRPDRQTVMFSATFPRAMEALARRILSKPIEVQVGGRSVVCSDVEQQVIVIEEEKKFLKLLELLGHYQESGSVIIFVDKQEHADGLLKDLMRASYPCMSLHGGIDQYDRDSIINDFKNGTCKLLVATSVAARGLDVKHLILVVNYSCPNHYEDYVHRAGRTGRAGNKGYAYTFITEDQARYAGDIIKALELSGTAVPPDLEKLWSDFKDQQKAEGKIIKKSSGFSGKGFKFDETEQALANERKKLQKAALGLQDSDDEDAAVDIDEQIESMFNSKKRVKDMAAPGTSSVPAPTAGNAEKLEIAKRLALRINAQKNLGIESQDVMQQATNAILRGGTILAPTVSAKTIAEQLAEKINAKLNYVPLEKQEEERQDGGQNESFKRYEEELEINDFPQTARWKVTSKEALQRISEYSEAAITIRGTYFPPGKEPKEGERKIYLAIESANELAVQKAKAEITRLIKEELIRLQNSYQPTNKGRYKVL
B5: DDX46, endogenous (protein, UniProt Q7L014 1-1031)
chain: B4 chain

How the values were obtained:
Test in all cases: proximity labelling; split-APEX: optimal AP/EX combination of SRSF1 with a helicase, TNPO3 or SRRM2 in HEK293T cells; biotinylated proteins recovered on Neutravidin resin, MS/MS; three experiments, proteins found in at least two replicates listed, ranked by total spectral count
[1] = target: SRSF1 fused to the AP or the EX fragment of APEX2 (split-APEX fusion) (UniProt Q07955)
[2] = target: SRRM2 fused to the AP or the EX fragment of APEX2 (human) (UniProt Q9UQ35)
[3] = target: DDX23 fused to the AP or the EX fragment of APEX2 (UniProt Q9BUQ8)

Molecule | binding [1] | binding [2] | binding [3]
DDX23 fused to the AP or the EX fragment of APEX2 (from UniProt Q9BUQ8 1-820) | binds | – | –
SON (from UniProt P18583 1-2426) | no binding | no binding | –
B1 | binds | – | –
B2 | binds | – | –
B3 | binds | – | –
B4 | binds | – | –
B5 | – | – | no binding

Results are given in words; binding and its absence hold for the method and conditions named. Binding seen in cells or lysates may run through a third protein. These calls come from enrichment with a bait or labelling near it, and not all partners need be listed. A no says only that the protein was not detected with the bait. For some assays here: Where a sequence is shown, tags or fusion partners need not be part of it.
